For at least one compound, name, drawing or mass did not settle the structure.
System: NKG2DL (MICA-B, ULBP1-3) surface expression
Assay: flow cytometry of NKG2DL cell surface expression in cancer cell lines
Type: cell-based, human
Conditions: HCT116, SPIR 56 μM 3 days; HX531 10 μM, caffeine 1.5 mM, wortmannin 10 μM, KU55933 10 μM, VE-821 10 μM
Method: Data are representative of five independent experiments. […] Controls were stained with APC-conjugated anti-human Fc antibody alone without preincubation with NKG2D-Fc. Data are representative of three independent experiments. […] Results are representative of two independent experiments. […] (E) NKG2DL mRNA expression in the colon cancer cell lines was analyzed by qRT-PCR analysis. Data are normalized to GAPDH mRNA levels and are presented as fold-change relative to the expression in DMSO-treated cells (n=5). (F) Lentiviral-based luciferase reporter construct containing the putative ULBP2 promoter (−2415 to 0 bp from the transcription start site: 73 bp upstream of ATG) was transduced into the colon cancer cell lines. Positively transduced cells were selected by puromycin treatment (2 μg/ml) for 2 weeks. […] Data shown are expressed as fold-change relative to the luciferase activity observed in DMSO-treated cells (n=3). * P<0.05, ** P<0.01.
Cell lines were stained with allophycocyanin-conjugated anti-MICA, anti-MICB, or anti-ULBP2 antibodies for 20 min at 4° C. For ULBP1 and ULBP3 staining, cells were first incubated with anti-ULBP1 and anti-ULBP3 antibodies and then with allophycocyanin-conjugated goat anti-mouse IgG antibody. […] Cells were washed and analyzed on a C6 flow cytometer (Accuri). Data were analyzed using FlowJo software (TreeStar).

`COC[C@H]1OC(=O)c2coc3c2[C@@]1(C)C1=C(C3=O)[C@@H]2CCC(=O)[C@@]2(C)C[C@H]1OC(C)=O` [wortmannin] was tested, and the “effect of co-treatment on SPIR's upregulation of NKG2DLs” value was “completely abolished”.
